For some assays here: Negatives hold for the conditions tested. For some assays here: At least one verdict rests on a figure or table, not on a statement of the authors. For some assays here: A weaker result is weaker than the reference pair of the same experiment. For some assays here: The exact form of at least one protein or probe is not confirmed.

Chains of the proteins cited; added tags and fusions are not shown. A line that says so, or that is headed by a name, gives the form on record, which may keep a tag or linker.
tauN (N-terminal region) (human), one chain, as listed by the source: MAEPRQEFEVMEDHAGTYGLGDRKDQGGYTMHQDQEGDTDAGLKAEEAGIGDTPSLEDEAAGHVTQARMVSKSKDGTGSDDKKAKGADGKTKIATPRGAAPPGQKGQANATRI
tauMTBD (microtubule-binding domain) (human), one chain, as listed by the source: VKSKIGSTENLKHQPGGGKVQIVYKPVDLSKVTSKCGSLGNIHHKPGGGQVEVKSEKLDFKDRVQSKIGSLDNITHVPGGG
tau23 (human), one chain, as listed by the source: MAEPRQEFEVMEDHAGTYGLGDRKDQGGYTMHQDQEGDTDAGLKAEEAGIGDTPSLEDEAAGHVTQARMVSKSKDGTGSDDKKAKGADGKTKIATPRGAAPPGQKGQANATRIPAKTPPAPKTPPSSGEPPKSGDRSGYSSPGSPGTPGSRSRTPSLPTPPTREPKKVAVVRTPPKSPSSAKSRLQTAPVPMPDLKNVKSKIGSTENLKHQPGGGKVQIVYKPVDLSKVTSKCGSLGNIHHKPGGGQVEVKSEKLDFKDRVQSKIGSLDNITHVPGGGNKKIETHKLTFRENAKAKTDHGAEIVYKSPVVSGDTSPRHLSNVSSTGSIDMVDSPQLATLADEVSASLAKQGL

For data set [1], the system named is tau23 (human). As to the kind of experiment: EMSA. Particulars: [tau]/[bp] 1/10; 20 mM Tris pH 7.2, 50 mM NaCl, 0.5 mM DTT, 1 mM MgCl2, 0.5 mM EDTA, room temperature 20-30 min; native PAGE in 1xTBE (20% gel at 4 C, or 8% for the 26 bp assay); recombinant protein; residues 1-352.
Data set [2] deals with tau23 (human). As to the kind of experiment: competition EMSA. Particulars: distamycin A, [distamycin A]/[DNA] 5/3 and above, [tau]/[DNA] 1/3; 20 mM Tris pH 7.2, 50 mM NaCl, 0.5 mM DTT, 1 mM MgCl2, 0.5 mM EDTA, room temperature 20-30 min; native PAGE in 1xTBE (20% gel at 4 C, or 8% for the 26 bp assay); recombinant protein; residues 1-352. On the technique in general: Mobility shift assays separate free from complexed probe on a gel.

For data set [3], the system named is tauPro (proline-rich domain) (human). As to the kind of experiment: EMSA. Particulars: shift at [protein]/[DNA] 2/1 or higher, 2.5 uM DNA; 20 mM Tris pH 7.2, 50 mM NaCl, 0.5 mM DTT, 1 mM MgCl2, 0.5 mM EDTA, room temperature 20-30 min; native PAGE in 1xTBE (20% gel at 4 C, or 8% for the 26 bp assay); recombinant protein; residues 114-193; protein details: C-terminal His-tag.

The subject of data set [4] is tauMTBD (microtubule-binding domain) (human). As to the kind of experiment: EMSA. Particulars: marked shift at about four times the tau23 ratio, 2.5 uM DNA; 20 mM Tris pH 7.2, 50 mM NaCl, 0.5 mM DTT, 1 mM MgCl2, 0.5 mM EDTA, room temperature 20-30 min; native PAGE in 1xTBE (20% gel at 4 C, or 8% for the 26 bp assay); recombinant protein; residues 198-278; protein details: C-terminal His-tag.

Data set [5] concerns tauN (N-terminal region) (human). As to the kind of experiment: EMSA. Particulars: same conditions as Fig 7; 20 mM Tris pH 7.2, 50 mM NaCl, 0.5 mM DTT, 1 mM MgCl2, 0.5 mM EDTA, room temperature 20-30 min; native PAGE in 1xTBE (20% gel at 4 C, or 8% for the 26 bp assay); recombinant protein; residues 1-113; protein details: C-terminal His-tag.
Data set [6] concerns tauC (C-terminal region) (human). Nature of the data set: EMSA. Particulars: same conditions as Fig 7; 20 mM Tris pH 7.2, 50 mM NaCl, 0.5 mM DTT, 1 mM MgCl2, 0.5 mM EDTA, room temperature 20-30 min; native PAGE in 1xTBE (20% gel at 4 C, or 8% for the 26 bp assay); recombinant protein; residues 279-352; protein details: C-terminal His-tag.

As for “ACTCCGTGCATAAATAA / TTATTTATGCACGGAG [16 bp DNA]”, the binding result in the data set on tau23 (human) [1] was “binds”.
Consider “ACTCCGTGCATAAATAATAGGCACTCG / CCGAGTGCCTATTATTTATGCACGGAG [26 bp DNA]”, for which the binding result in the data set on tau23 (human) [2] was “binds more weakly”.
As to “AACGAGAAGCGCGATCACAT (double strand) [20 bp DNA]”, the binding result in data set [3] is reported as “binds more weakly”; in data set [4], “binds more weakly”; in data set [5] it was “no binding”; in data set [6], “no binding”.
In the case of “GCTCCGTGCATAAATAATAGGC / CGAGCCTATTATTTATGCACGGAG [21 bp DNA]”, the binding result in the data set with tau23 (human) [1] is recorded as “binds”.
On the same count and under the same terms, the entry for “ATCCGTGCATAAATAA / CTTATTTATGCACGGA [15 bp DNA]” is “binds”.

Values taken from PMC2432501.
